# PubChem BioAssay AID2685 (National Center for Advancing Translational Sciences (NCATS), 2010)
# The list shows a part of the results. These are further read-outs of the screen, such as a control signal, another cell line or another target. No call is given for them. Compounds called inactive in the main read-out are mostly missing here. Potencies come from curve fits of mixed quality, noted in brackets.
# Test: qHTS Assay for Lipid Storage Modulators in Drosophila S3 Cells;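 on cell number change: cells counted by Cell Tracker Red CMTPX staining in the red channel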
# Conditions: BODIPY lipid droplet fluorescence, 18-24 h; for cell number change: measured here: cell count max response, cells fed with added oleic acid
# Outline: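 Drosophila S3 cells loaded with oleic acid (400 uM, as added) and compounds at several concentrations; lipid droplets imaged by 488-nm laser-scanning cytometry, 500–530 nm intensity and object ratio to cell channel. Percent activity normalized to 20 uM Triacsin C.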
# [1] = measured here: cell number channel AC50, cells fed with added oleic acid
# [2] = measured here: lipid fluorescence (Fed channel) AC50, cells fed with added oleic acid
SMILES,cell number change,AC50 [1],AC50 [2]
COc1cccc(NC(=O)c2cc3cccc(OC)c3o/c2=N\O)c1,-60%,"20.6 µM [falling, single point]","29.1 µM [falling, single point]"
Cc1nn(Cc2ccccc2)c(=O)n1N(C)c1ncc(C(F)(F)F)cc1Cl,20.1%,,"29.1 µM [rising, single point]"
Cc1cc(C)nc(N/N=C/c2ccc(N3CCOCC3)cc2)n1,42%,"29.1 µM [rising, partial curve, poor fit]","29.1 µM [rising, partial curve, poor fit]"
CCOc1ncccc1C(=O)Nc1cc(S(=O)(=O)N2CCCCCC2)ccc1OC,16.6%,,
CN1C=CC=C/C1=C1\SC(=S)N(N)C1=O,14.8%,,
CN(CCOc1ccccc1)c1ccc(S(=O)(=O)N2CCCCC2)cn1,16.3%,,"5.8 µM [rising, partial curve]"
COCc1c(C(=O)N2CCN(CCOc3ccccc3)CC2)oc2ccccc12,-17.2%,,"3.26 µM [rising, full curve, poor fit]"
CCOC(=O)C1=C(CC)Nc2ccccc2N=C1NC(=O)c1cccc(S(=O)(=O)N2CCOCC2)c1,5.57%,,"0.184 µM [rising, full curve, poor fit]"
COc1ccc(CC(=O)Nc2ccc(S(=O)(=O)N(C)C3CCN(C)CC3)cc2)cc1,-6.35%,,"29.1 µM [rising, partial curve, poor fit]"
O=C(CCl)N1CCN(S(=O)(=O)c2ccc3c(c2)CCC3)CC1,13.3%,,"29.1 µM [falling, partial curve, poor fit]"
CC(NC(=O)COC(=O)c1cc2ccccc2cc1O)c1ccccc1 (stereo not given),-34.8%,"13 µM [falling, partial curve, poor fit]",
CC(C)(C)c1ccc(C(=O)Nc2cccc3c(=O)[nH][nH]c(=O)c23)cc1,,,"29.1 µM [rising, single point]"
CN(CC(=O)Nc1ccc(Cl)c(Cl)c1)C1CCCCC1,-16.8%,,"29.1 µM [falling, single point]"
COC(=O)c1ccc(N2CCCCC2)c(NC(=O)c2ccco2)c1,11.1%,"0.164 µM [rising, full curve, poor fit]","2.06 µM [rising, partial curve, poor fit]"
CC(=O)c1ccc(N(C(=O)CNC(=O)c2ccco2)C(C(=O)NC2CCCC2)c2ccco2)cc1 (stereo not given),7.08%,,
CCCN1CCc2c(sc3nc(SC)n(-c4ccccc4)c(=O)c23)C1,53.9%,"13 µM [rising, partial curve]","29.1 µM [rising, single point]"
O=C(O)c1ccc(-n2cccc2/C=C2/SC(=O)N(CC(=O)N3CCCC3)C2=O)cc1,13.5%,,
CN1c2ccccc2C(=O)/C(=C\Nc2ccc(F)cc2)S1(=O)=O,-6.98%,,"0.651 µM [falling, full curve, poor fit]"
CCCCN(CC)CCNC(=O)c1cc2c(=O)[nH]c3ccccc3c2s1,35.5%,"2.06 µM [rising, full curve]","16.4 µM [rising, partial curve]"
CC(O)CNCCNCc1cccs1 (stereo not given),-5.54%,"0.731 µM [rising, single point]",

SMILES,cell number change,AC50 [1],AC50 [2]
CN1CCN(c2ccc(CNS(=O)(=O)Cc3cccc(C(F)(F)F)c3)cc2)CC1,-25.5%,,"23.1 µM [falling, single point]"
COc1cc(CN2CCNC(=O)C2CC(=O)N(Cc2nccn2C)C(C)C)cc(OC)c1 (stereo not given),-15.3%,"0.82 µM [falling, full curve, poor fit]","0.731 µM [falling, full curve]"
Cc1nc(SCC(=O)NCCc2ccc(Cl)cc2)nc(C)c1C,-15.5%,,"0.231 µM [rising, single point]"
CC(C)OC(=O)CC(=O)CSc1nc(-c2ccc(F)cc2)cc(-c2ccccc2)c1C#N,12.3%,,
Cc1cc(NC(=O)c2cc3n(n2)C(C(F)(F)F)CC(c2ccco2)N3)n(-c2ccccc2)n1 (stereo not given),,"0.411 µM [rising, full curve]","0.731 µM [rising, partial curve]"
O=C(c1cc2c(s1)CCCCC2)N1CCN(c2ncccn2)CC1,7.74%,,"6.51 µM [rising, single point]"
COc1ccc(-c2nn(-c3ccccc3)cc2C(=O)NC(=S)N2CCOCC2)cc1OC,-23.1%,"0.0116 µM [falling, full curve, poor fit]","0.0206 µM [falling, full curve, poor fit]"
CCOC(=O)c1ccc(NC(=O)Nc2ccc(OC)c(OC)c2)cc1,,,"3.26 µM [rising, partial curve]"
COc1ccc(C(=O)/C=C/C(=O)N(Cc2ccccc2)C(C(=O)NC2CCCCC2)c2ccncc2)c(O)c1 (stereo not given),-40.6%,"0.366 µM [falling, full curve]","0.58 µM [rising, full curve, poor fit]"
O=C(Nc1cccc(Oc2ccc3c(c2)C(=O)NC3=O)c1)c1cccs1,-25.1%,,"11.6 µM [falling, partial curve]"
CCOC(=O)c1ccc(NCc2ccc3c(c2)OCO3)cc1,-26.3%,,"20.6 µM [falling, partial curve, poor fit]"
O=S(=O)(c1cc(Cl)ccc1Cl)N1CCN(c2ccccn2)CC1,8.97%,,
O=[N+]([O-])c1cc(S(=O)(=O)c2ccc(N3CCCCC3)c([N+](=O)[O-])c2)ccc1N1CCCCC1,,,"6.51 µM [falling, partial curve]"
O=C(CCn1c(=S)[nH]c2cc3c(cc2c1=O)OCO3)NCc1ccc(Cl)cc1,17.3%,"0.0058 µM [rising, full curve, poor fit]",
COc1ccc(N2C(=O)C(CN3CCN(C)CC3)C2c2ccccc2)cc1 (stereo not given),21.3%,,"20.6 µM [rising, single point]"
CC(C)Oc1ccc(/C=N/NC(=O)C2CCCN2S(=O)(=O)c2ccc(Cl)cc2)cc1 (stereo not given),-23.9%,,"0.146 µM [rising, full curve, poor fit]"
Cc1n[nH]c(C)c1N=Nc1ccc(Br)cc1,54.4%,"0.92 µM [rising, full curve]",
Cc1csc(N(C(=O)c2cccc(S(=O)(=O)N(C)C)c2)c2ccccc2)n1,-30.7%,"29.1 µM [falling, single point]",
CC(=O)c1cccc(NS(=O)(=O)c2ccc(-c3cnc(C4CC4)o3)cc2)c1,-4.72%,,"29.1 µM [falling, single point]"
O=C(Nc1ccc(F)cc1)c1cnc(-c2ccccc2)nc1-c1ccccc1,-104%,"29.1 µM [falling, single point]",

# Shown bar-delimited: three of the compounds above
SMILES | cell number change | AC50 [1] | AC50 [2]
COc1ccc(C(=O)/C=C/C(=O)N(Cc2ccccc2)C(C(=O)NC2CCCCC2)c2ccncc2)c(O)c1 (stereo not given) | -40.6% | 0.366 µM [falling, full curve] | 0.58 µM [rising, full curve, poor fit]
O=C(Nc1cccc(Oc2ccc3c(c2)C(=O)NC3=O)c1)c1cccs1 | -25.1% |  | 11.6 µM [falling, partial curve]
CCOC(=O)c1ccc(NCc2ccc3c(c2)OCO3)cc1 | -26.3% |  | 20.6 µM [falling, partial curve, poor fit]

# Following part:

SMILES,cell number change,AC50 [1],AC50 [2]
Fc1ccc(NCc2cccnc2)cc1,51.2%,"6.51 µM [rising, partial curve]",
C=CCNc1oc(-c2ccc(OCC)cc2)nc1C#N,,"1.16 µM [rising, partial curve]",
Cc1cc2c(cc1S(=O)(=O)N1CC(C)CC(C)C1)OCC(=O)N2 (stereo not given),-11.5%,,
COCCn1c(SCC(=O)Nc2cccc(S(N)(=O)=O)c2)nc2ccccc21,-8.33%,,"4.61 µM [rising, partial curve, poor fit]"
Brc1cccc(CNCc2ccncc2)c1,4.67%,,
Cc1cccc(S(=O)(=O)N(CC(=O)Nc2ccccc2C)Cc2ccco2)c1,18.6%,"0.0517 µM [rising, full curve, poor fit]",
CC1=C(c2ccc(C)cc2)S(=O)(=O)N(CC(=O)O)C1=O,-30.6%,"0.00517 µM [falling, full curve, poor fit]","10.3 µM [falling, partial curve]"
O=C(CNC(=O)c1ccccc1F)NCCOc1ccccc1Cl,23.6%,"0.461 µM [falling, full curve]","29.1 µM [rising, single point]"
Cn1ccnc1CC(O)(c1ccccc1)c1ccccc1,32.1%,,"0.82 µM [falling, single point]"
Cc1cc(Cn2nnc(-c3ccc(Br)cc3)n2)cc(C)c1O,-79.7%,"18.4 µM [falling, partial curve]","2.06 µM [rising, partial curve]"
COc1ccc(C(=O)c2ccccc2)c(OCC(=O)N(C)C)c1,18.3%,,"4.11 µM [rising, full curve, poor fit]"
COc1cccc(/C=N/NC(=O)c2ccc(-c3ccccc3)cc2)c1O,-34.4%,"5.8 µM [falling, full curve, poor fit]","0.731 µM [rising, full curve, poor fit]"
C/C(=N\NC(=O)C(N)=O)c1ccc(O)cc1O,,"0.00461 µM [falling, full curve, poor fit]","0.00517 µM [falling, full curve, poor fit]"
C[C@H](NC(=O)c1nc[nH]c1C(=O)N1CCN(c2ccccc2)CC1)C(=O)OCc1ccccc1,-6.59%,,
CSc1oc(-c2ccccc2)nc1S(=O)(=O)c1ccc(C)cc1,,"4.61 µM [rising, single point]","3.66 µM [rising, single point]"
Cc1cccc(N2CCN(C(=O)CNC(=O)c3ccccc3)CC2)c1C,17.9%,,
O=S(=O)(Nc1ccc2c(c1)OCO2)c1ccc(Br)s1,-19.1%,,"14.6 µM [falling, single point]"
CCNC(=O)N1CCCC(C(=O)c2ccc3cc(OC)ccc3c2)C1 (stereo not given),-33.9%,"16.4 µM [falling, partial curve]","8.2 µM [falling, partial curve, poor fit]"
